Laboratory results from doi:10.1101/2022.02.22.481420.
Results are given in words; binding and its absence hold for the method and conditions named. Binding seen in cells or lysates may run through a third protein. Some results given as binding are weak or reduced against the parent protein; the word gives no strength. Sequences can lack the tags named with a protein.

Amino acid sequences for entries named in this document (tags omitted).
UniProt P84022: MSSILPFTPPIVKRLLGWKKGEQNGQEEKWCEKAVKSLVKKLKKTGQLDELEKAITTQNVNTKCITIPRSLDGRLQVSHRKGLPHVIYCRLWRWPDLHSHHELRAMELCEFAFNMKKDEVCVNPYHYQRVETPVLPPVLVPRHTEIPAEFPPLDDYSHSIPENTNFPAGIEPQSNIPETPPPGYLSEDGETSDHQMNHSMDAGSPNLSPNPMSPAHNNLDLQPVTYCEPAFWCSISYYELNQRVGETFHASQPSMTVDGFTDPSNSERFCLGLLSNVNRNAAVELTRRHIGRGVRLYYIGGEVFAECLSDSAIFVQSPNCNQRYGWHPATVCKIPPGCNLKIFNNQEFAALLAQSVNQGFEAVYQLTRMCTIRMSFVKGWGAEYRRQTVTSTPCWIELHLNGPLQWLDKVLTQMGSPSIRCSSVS
UniProt Q15796: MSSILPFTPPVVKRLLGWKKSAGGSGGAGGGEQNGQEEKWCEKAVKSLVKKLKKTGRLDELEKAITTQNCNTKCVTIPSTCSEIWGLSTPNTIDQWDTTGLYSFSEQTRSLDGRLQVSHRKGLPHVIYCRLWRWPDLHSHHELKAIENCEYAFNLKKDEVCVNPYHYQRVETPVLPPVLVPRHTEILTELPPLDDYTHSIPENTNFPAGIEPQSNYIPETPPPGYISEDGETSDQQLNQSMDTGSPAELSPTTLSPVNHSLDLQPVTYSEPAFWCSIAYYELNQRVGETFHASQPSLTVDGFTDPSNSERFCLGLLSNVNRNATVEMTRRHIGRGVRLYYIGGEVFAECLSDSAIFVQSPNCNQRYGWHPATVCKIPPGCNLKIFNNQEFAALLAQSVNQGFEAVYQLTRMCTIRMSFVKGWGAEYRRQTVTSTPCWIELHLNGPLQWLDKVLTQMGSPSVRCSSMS

Target: T1, GFP-tagged, RNAi-resistant wild-type SKOR1 (SKI family transcriptional corepressor 1) (human) (UniProt P84550)
T1 sequence: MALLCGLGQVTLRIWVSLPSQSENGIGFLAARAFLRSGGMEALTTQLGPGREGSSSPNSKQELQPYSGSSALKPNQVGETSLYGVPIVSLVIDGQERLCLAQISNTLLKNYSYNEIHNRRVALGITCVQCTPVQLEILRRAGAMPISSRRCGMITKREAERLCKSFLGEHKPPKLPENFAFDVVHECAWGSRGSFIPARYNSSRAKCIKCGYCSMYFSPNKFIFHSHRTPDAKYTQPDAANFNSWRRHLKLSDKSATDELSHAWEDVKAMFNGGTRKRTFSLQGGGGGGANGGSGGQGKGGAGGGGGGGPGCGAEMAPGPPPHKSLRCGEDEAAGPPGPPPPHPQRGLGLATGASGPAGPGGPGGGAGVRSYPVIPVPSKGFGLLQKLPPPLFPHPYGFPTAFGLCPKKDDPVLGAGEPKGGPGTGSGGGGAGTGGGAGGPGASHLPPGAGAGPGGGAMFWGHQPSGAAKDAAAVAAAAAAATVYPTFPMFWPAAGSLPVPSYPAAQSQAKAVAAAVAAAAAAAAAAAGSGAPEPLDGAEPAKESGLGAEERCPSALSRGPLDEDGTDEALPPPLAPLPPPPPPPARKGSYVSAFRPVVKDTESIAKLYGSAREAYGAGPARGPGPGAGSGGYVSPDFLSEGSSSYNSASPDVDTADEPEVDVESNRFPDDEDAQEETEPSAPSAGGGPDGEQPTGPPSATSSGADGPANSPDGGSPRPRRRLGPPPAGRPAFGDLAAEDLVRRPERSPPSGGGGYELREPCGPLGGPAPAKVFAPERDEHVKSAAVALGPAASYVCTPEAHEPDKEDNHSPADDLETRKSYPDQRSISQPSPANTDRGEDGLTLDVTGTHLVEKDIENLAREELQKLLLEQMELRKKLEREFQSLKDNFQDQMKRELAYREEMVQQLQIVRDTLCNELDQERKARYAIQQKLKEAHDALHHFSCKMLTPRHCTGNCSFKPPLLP
Assay: co-IP

Substance | binding
Smad3 (from UniProt P84022 1-425) | binds
Smad2 (from UniProt Q15796 1-467) | binds
